Measurements published in patent US20070134744A1, “Epothilone resistant cell lines” (priority 2000, published 2007).

Key:
Format in all cases: cell-based, human
297/C5/0 cells = conditions: 297/C5/0 (EpoA selected), 72 hrs, average of three experiments
Experimental: (§1) Anti-proliferative assays are performed basically as described (Meyer et al., Int. J. Cancer 43:851 (1989)). Briefly, cells are seeded at 1.5×10^3 cells/well into 96-well microtiter plates and allowed to adhere by incubation overnight. Compounds are added in serial dilutions on day 1. The plates are then incubated for an additional 3 days, after which the cells are fixed with 3.3% v/v glutaraldehyde, washed with water and stained with 0.05% w/v methylene blue according to conventional methods. After washing, the dye is eluted with 3% HCl and the optical density measured at 665 nm with a SpectraMax Plus (Molecular Devices, Sunnyvale, Calif.) according to manufacturers instructions. IC50 values are determined by mathematical curve-fitting using the SoftPro2.6.1 program (Molecular Devices, Sunnyvale, Calif.) using the formula (OD treated−OD start)/(OD control−OD start)×100. The IC50 is defined as the drug concentration that led to 50% inhibition of net cell growth at the end of the incubation period. IC50 determinations with the cell line 298/D4/40 are performed in the presence of 40 nM epothilone A.
(§2) Data in Table 4 are gathered according to the following methods: Cells (1×10^3) are seeded in 96-well plates and allowed to adhere for 24 hrs. Compounds are then added as two-fold serial dilutions and incubation continued for an additional 72 hrs. Cell numbers at the beginning and at the end of the experiment are estimated by methylene blue staining of cellular protein mass according to conventional methods. The net mass increase of vehicle-treated cells is set as 100% growth. The IC50 is determined as the drug concentration that leads to half-maximal growth inhibition compared to the control. The resistance factor (RF) for a particular drug is calculated by dividing the IC50 determined on the resistant cell line by that determined on the parental KB-31 cells. Data are presented as average±standard deviation (SD) of three separate experiments, except na=not applicable (n<3). Colchicine-selected KB-8511 cells overexpressing P-glycoprotein served as a reference for the classical multi-drug-resistant phenotype.

315/sc5.9 cells = conditions: 315/sc5.9 (EpoB selected), 72 hrs, average of three experiments
Experimental: as §1, §2

298/D4/40 cells = conditions: 298/D4/40 (EpoA selected), 72 hrs, in the presence of 40 nM epothilone A
Experimental: as §1, §2

KB-8511 cells = conditions: KB-8511 (Colch selected), 72 hrs, average of three experiments
Experimental: as §1, §2

In the case of `CN[C@H]1CCc2cc(OC)c(OC)c(OC)c2-c2ccc(OC)c(=O)cc21` [Demecolcine, demecolcine], the “RF (resistance factor: IC50 resistant cell line / IC50 parental KB-31)” value (297/C5/0 cells) is reported as 0.7, the “RF (resistance factor: IC50 resistant cell line / IC50 parental KB-31)” value (315/sc5.9 cells) is reported as 0.7 and the “RF (resistance factor: IC50 resistant cell line / IC50 parental KB-31)” value (298/D4/40 cells) is reported as 0.5. The “RF (resistance factor: IC50 resistant cell line / IC50 parental KB-31)” value (KB-8511 cells) was 6.2.
